The assay deals with T1, Mfa1 (Porphyromonas gingivalis (endogenous in strain JI-1)) (UniProt B2RHG1).
T1 sequence: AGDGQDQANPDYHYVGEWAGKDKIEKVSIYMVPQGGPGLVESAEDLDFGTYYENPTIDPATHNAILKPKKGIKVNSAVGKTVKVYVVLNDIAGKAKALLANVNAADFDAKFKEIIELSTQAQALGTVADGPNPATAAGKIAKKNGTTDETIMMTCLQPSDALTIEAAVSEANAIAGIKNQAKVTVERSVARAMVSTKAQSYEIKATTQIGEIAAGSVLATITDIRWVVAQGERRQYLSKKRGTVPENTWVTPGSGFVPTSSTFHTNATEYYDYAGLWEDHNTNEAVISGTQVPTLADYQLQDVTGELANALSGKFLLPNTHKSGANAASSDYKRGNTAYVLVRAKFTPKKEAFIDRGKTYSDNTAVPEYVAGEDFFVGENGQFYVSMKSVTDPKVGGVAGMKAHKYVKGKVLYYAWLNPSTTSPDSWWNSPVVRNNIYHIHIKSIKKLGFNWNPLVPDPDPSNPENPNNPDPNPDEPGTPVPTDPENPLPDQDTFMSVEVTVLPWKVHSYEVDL
The assay can be described thus: co-purification of native fimbriae; Mfa1 fimbriae purified from P. gingivalis cells (French press, ultracentrifugation, 50% ammonium sulfate, ion exchange and size exclusion chromatography); components seen by SDS-PAGE (CBB), anti-Mfa4 immunoblot and N-terminal sequencing. For orientation: In gel filtration, larger molecules generally elute earlier.

The chains behind the UniProt entries cited, without tags or fusion partners. Residues count along the entry.
UniProt B2RHG3, residues 44-446: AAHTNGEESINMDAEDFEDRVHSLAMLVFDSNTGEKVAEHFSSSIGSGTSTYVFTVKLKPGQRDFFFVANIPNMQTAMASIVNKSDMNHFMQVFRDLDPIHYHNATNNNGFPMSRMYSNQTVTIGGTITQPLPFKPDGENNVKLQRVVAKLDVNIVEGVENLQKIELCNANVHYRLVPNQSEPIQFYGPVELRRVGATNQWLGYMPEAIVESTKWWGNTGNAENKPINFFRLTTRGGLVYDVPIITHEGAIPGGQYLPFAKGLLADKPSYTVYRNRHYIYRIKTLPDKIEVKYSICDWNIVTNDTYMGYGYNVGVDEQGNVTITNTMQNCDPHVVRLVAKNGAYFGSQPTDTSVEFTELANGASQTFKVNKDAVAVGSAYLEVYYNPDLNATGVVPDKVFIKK
UniProt B2RHG4, residues 54-333: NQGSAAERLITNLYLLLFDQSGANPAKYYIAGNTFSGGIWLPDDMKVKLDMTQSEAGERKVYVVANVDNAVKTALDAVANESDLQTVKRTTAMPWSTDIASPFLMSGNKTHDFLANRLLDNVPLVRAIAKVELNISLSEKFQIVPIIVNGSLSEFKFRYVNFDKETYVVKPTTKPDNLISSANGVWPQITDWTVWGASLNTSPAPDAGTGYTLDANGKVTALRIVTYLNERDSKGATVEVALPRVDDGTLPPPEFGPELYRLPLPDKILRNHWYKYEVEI
UniProt B2RHG5, residues 26-1228: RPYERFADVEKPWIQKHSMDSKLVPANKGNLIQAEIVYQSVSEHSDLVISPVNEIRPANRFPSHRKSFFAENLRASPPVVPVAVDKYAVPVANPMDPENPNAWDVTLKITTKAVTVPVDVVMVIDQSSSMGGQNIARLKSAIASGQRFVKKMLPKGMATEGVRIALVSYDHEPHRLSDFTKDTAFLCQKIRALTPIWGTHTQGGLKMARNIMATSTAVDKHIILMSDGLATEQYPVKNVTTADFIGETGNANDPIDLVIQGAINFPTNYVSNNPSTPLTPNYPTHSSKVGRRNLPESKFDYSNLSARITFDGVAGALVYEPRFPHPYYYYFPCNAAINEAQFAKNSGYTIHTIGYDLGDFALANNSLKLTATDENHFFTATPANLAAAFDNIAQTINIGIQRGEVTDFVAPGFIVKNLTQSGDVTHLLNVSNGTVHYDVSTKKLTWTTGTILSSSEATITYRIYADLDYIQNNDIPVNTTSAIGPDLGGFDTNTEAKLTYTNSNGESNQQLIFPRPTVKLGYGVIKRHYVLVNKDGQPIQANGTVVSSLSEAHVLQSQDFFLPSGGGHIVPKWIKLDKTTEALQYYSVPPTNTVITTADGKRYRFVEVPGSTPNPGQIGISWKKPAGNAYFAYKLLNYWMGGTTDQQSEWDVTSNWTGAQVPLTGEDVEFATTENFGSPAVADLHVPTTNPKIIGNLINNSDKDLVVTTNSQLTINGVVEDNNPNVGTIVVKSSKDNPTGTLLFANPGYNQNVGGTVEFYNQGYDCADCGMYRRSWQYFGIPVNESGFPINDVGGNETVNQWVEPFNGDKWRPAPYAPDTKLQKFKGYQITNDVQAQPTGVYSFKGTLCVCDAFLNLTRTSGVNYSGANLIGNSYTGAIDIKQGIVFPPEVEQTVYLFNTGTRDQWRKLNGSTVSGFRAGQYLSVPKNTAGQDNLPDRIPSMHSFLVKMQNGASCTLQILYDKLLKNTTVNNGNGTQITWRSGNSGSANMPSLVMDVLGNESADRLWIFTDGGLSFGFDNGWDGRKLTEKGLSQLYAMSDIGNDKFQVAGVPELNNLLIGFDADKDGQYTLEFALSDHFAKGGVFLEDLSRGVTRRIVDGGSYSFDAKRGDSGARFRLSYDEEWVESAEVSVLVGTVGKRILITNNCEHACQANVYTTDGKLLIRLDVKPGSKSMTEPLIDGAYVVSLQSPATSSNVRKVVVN

This is an account of results in publication PMC4789730.

These are yes or no findings as the source states them, for the method shown. Some binding calls cover weakened binding; strength is not graded here.

In the case of Mfa3 (from UniProt B2RHG3 44-446), the binding result is “binds”.

For “Mfa4, mature form (wild type) (from UniProt B2RHG4 54-333)”, the binding entry is recorded as “binds”.

As to Mfa5 (from UniProt B2RHG5 26-1228), the binding entry was “binds”.
